Consider three substances from PMC3554521.

By UniProt entry, the sequences of proteins in these tests, tags left out. Where a name states a change or a piece, a line headed by the entry shows the natural chain unless it says otherwise.
UniProt P10629: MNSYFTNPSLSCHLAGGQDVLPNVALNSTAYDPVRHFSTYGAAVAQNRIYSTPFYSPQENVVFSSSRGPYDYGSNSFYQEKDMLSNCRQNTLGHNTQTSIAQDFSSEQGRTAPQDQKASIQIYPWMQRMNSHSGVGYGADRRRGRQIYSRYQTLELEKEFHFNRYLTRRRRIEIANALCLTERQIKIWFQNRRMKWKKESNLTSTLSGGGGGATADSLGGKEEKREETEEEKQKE

These are yes or no findings as the source states them, for the method shown. Some binding calls cover weakened binding; strength is not graded here.

The target in the experiment is T1, Pbx3 (UniProt O35317).
T1 sequence: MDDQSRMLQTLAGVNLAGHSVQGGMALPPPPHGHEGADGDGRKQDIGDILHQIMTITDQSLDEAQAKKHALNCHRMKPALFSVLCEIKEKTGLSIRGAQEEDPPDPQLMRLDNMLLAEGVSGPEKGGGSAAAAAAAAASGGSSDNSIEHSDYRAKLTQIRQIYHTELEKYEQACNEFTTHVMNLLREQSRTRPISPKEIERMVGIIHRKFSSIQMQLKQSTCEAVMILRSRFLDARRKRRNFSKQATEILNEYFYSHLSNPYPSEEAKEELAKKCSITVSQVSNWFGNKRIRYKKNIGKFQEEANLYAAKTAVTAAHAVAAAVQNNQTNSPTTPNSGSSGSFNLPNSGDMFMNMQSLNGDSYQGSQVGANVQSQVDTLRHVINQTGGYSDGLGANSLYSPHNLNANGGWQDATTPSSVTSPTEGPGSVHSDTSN
Nature of the experiment: native gel or EMSA; gel mobility shift: recombinant Hoxc6 derivatives and Pbx3 together on IRDye-800 labelled DNA probes (Foxp1/hs1149 site, Fkh250con*); cooperative binding on DNA; 50 mM Tris-HCl pH 7.5, 250 mM NaCl, 5 mM MgCl2, 20% glycerol, 2.5 mM DTT, 2.5 mM EDTA, poly dIdC, 0.1% BSA, 20 min at room temperature; 0.5-2 pmol protein per reaction; both purified.
As to Hoxc6 (from UniProt P10629 1-235), the binding result is “binds”.

Take “Hoxc6NΔ111 (from UniProt P10629 112-235) (domain or fragment)”: the binding entry is on record as “binds”.

With “Hoxc6NΔ91 (from UniProt P10629 92-235) (domain or fragment)”, the binding result is “binds”.
